## Results from one PubChem assay

From PubChem BioAssay record AID1963591 (Tox21, 2024).

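CRE-bla HEK293T reporter cells under cAMP stimulation; the beta-lactamase FRET ratio is measured about 3 hours after compound addition. Each compound was run as a concentration series, mostly reaching a top of 92.4 µM. Fitted potency from the dose curve; a lower value means a more potent compound. Calls come from the whole dose curve: active means a well-fitted inhibition curve with enough effect in repeat runs, inconclusive means weak, mixed or opposite-direction curves, and inactive means a flat curve.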

Values are in µM. Every entry below has the call inconclusive. Only part of the assay is shown, chiefly results filed as inconclusive. A potency from a partial, single-point or poor curve is only a rough figure. Some entries filed as inconclusive have a full curve. The first word of each remark tells which way the curve ran; it can be opposite to the aim of the assay. An entry listed twice with the same setting is a separate test.

| Compound | Potency (µM) | curve as filed |
|---|---|---|
| `Fc1ccccc1[C@@H](F)COC1CCC(Nc2ncnc3[nH]ncc23)CC1` (stereo not given in full) | 61.13 | partial curve |
| `C=C(C)C(=O)OCC(CC)(COC(=O)C(=C)C)COC(=O)C(=C)C` | 24.98 | fluorescent, full curve |
| `CCC(=O)Oc1ccc2c(c1)CC[C@@H]1[C@@H]2CC[C@@]2(C)[C@H]1C[C@@H](OC(=O)CC)[C@@H]2OC(=O)CC` | 26.6 | activator, partial curve, poor fit |
| `S=C=Nc1cccc2ccccc12` | 67.89 | cytotoxic |
| `CN1CCN(CCCN2c3ccccc3Sc3ccc(S(=O)(=O)N(C)C)cc32)CC1` | 26.6 | fluorescent, partial curve |
| `Clc1ccc(C(c2ccc(Cl)cc2)C(Cl)Cl)cc1` | 69.71 | inhibitor, single point |
| `C=CC(=O)OCCOc1ccccc1` | 61.07 | activator |
| `C[C@]12CC[C@H]3[C@@H](CCC4=CC(=O)CC[C@@]43C)[C@@H]1CC[C@@H]2C(=O)CO` | 18.83 | activator |
| `[O-][n+]1ccccc1SSc1cccc[n+]1[O-]` | 0.5802 | rising, full curve |
| `CCCN(CCC)C(=O)Cc1c(-c2ccc(Cl)cc2)nc2ccc(Cl)cn12` | 26.6 | activator, partial curve |
| `CC(C)(C)CC(C)(C)c1ccccc1O` | 54.76 | rising, partial curve |
| `CCCCCCCC[N+](C)(CCCCCCCC)CCCCCCCC` | 43.19 | cytotoxic, partial curve, poor fit |
| `O=C1CCc2cc(OCCCCc3nnnn3C3CCCCC3)ccc2N1` | 26.6 | fluorescent, partial curve, poor fit |
| `CCN(CC)c1ccc(N)cc1` | 55.98 | fluorescent, partial curve |
| `CC/C=C\C/C=C\C/C=C\CCCCCCCC(=O)O` | 50.76 | fluorescent, partial curve |
| `O=[N+]([O-])c1ccc(O)c([N+](=O)[O-])c1` | 57.95 | fluorescent |
| `CC(C)c1c(C(=O)Nc2ccccc2)c(-c2ccccc2)c(-c2ccc(F)cc2)n1CC[C@@H](O)C[C@@H](O)CC(=O)O` | 29.51 | fluorescent, single point |
| `Oc1cc(Cl)c(Cl)c(Cl)c1Cl` | 53.21 | rising, partial curve, poor fit |
| `Cc1c(Cl)c(=O)oc2cc(OP(=O)(OCCCl)OCCCl)ccc12` | 13.33 | activator, partial curve |
| `Cc1cc(Cc2cc(C)cc(C(C)(C)C)c2O)c(O)c(C(C)(C)C)c1` | 63.9 | inhibitor, single point |
| `O=C1C=CC(=O)c2ccccc21` | 19.33 | rising, partial curve |
| `COc1cccc2c1C(=O)c1c(O)c3c(c(O)c1C2=O)C[C@@](O)(C(=O)CO)C[C@@H]3O[C@H]1C[C@H](N)[C@H](O[C@@H]2CCCCO2)[C@H](C)O1` | 13.33 | rising, partial curve, poor fit |
| `CCC[CH2][Sn]([Cl])([CH2]CCC)[CH2]CCC` | 6.113 | full curve |
| `Cc1ccc([N+](=O)[O-])c(C)c1` | 27.31 | rising, full curve |
| `CC(C)COCC(CN(Cc1ccccc1)c1ccccc1)N1CCCC1` (stereo not given) | 23.71 | fluorescent |
| `CCCCCCCCCCCCCCCCCC[N+](C)(C)C` | 54.65 | rising, partial curve |
| `CC(C)Nc1ccc(Nc2ccccc2)cc1` | 45.24 | - |
| `CCCCCCCCCCn1cc[n+](C)c1` | 9.679 | inhibitor, partial curve |
| `O=C(Nc1ccc(Cl)c(Cl)c1)c1cc(Cl)cc(Cl)c1O` | 8.635 | fluorescent, full curve |
| `C[C@]12C/C(=C/O)C(=O)C[C@@H]1CC[C@@H]1[C@@H]2CC[C@@]2(C)[C@H]1CC[C@]2(C)O` | 29.85 | fluorescent, partial curve |
| `Nc1ccc(S(N)(=O)=O)cc1` | 14.31 | inhibitor, single point |
| `COC12CC[C@@]3(C[C@@H]1C(C)(O)C(C)(C)C)[C@H]1Cc4ccc(O)c5c4[C@@]3(CCN1CC1CC1)[C@H]2O5` (stereo not given in full) | 27.11 | rising, partial curve |
| `COc1ccc(C(=O)/C(Br)=C\C(=O)O)cc1` | 17.23 | activator, partial curve, poor fit |
| `O=C(c1ccc(F)cc1)C1CCN(CCn2c(=S)[nH]c3ccccc3c2=O)CC1` | 16.79 | fluorescent, partial curve |
| `Nc1ccc2ccccc2c1` | 54.48 | activator, partial curve, poor fit |
| `NC(=O)c1nc(-c2cccc(-c3cc(F)ccc3OCC(F)(F)C(F)(F)F)c2)n[nH]1` | 68.59 | - |
| `COC(=O)N(C(=O)N1CO[C@@]2(C(=O)OC)Cc3cc(Cl)ccc3C2=N1)c1ccc(OC(F)(F)F)cc1` | 1.868 | activator, full curve, poor fit |
| `On1ccccc1=S` | 15.2 | rising, full curve |
| `CCc1nn(CCCN2CCN(c3cccc(Cl)c3)CC2)c(=O)n1CCOc1ccccc1` | 10.59 | activator |
| `Oc1cc(Cl)cc(Cl)c1Cl` | 49.75 | fluorescent, partial curve |
| `C=CC(=O)OCCOCC(CC)(COCCOC(=O)C=C)COCCOC(=O)C=C` | 28.44 | full curve |
| `N#Cc1c(Cl)c(Cl)c(Cl)c(C#N)c1Cl` | 13.69 | rising, full curve |
| `C=CC(=O)Nc1cc2c(Nc3ccc(F)c(Cl)c3)ncnc2cc1OCCCN1CCOCC1` | 10.59 | fluorescent |
| `CN(c1nccc(=O)[nH]1)C1CCN(c2nc3ccccc3n2Cc2ccc(F)cc2)CC1` | 29.85 | fluorescent |
| `C=C(C)C(=O)OCC(CC)(COC(=O)C(=C)C)COC(=O)C(=C)C` | 15.59 | fluorescent, full curve |
| `C=CCOC(=O)/C=C\C(=O)OCC=C` | 55.43 | activator |
| `CC(=O)[C@]1(O)Cc2c(O)c3c(c(O)c2[C@@H](O[C@H]2C[C@H](N)[C@H](O)[C@H](C)O2)C1)C(=O)c1ccccc1C3=O` | 11.88 | - |
| `Cc1cccc2c1cc1ccc3cccc4ccc2c1c34` | 27.95 | fluorescent |
| `N#CSCSc1nc2ccccc2s1` | 68.59 | inhibitor, single point |
| `CCCC1O[C@@H]2C[C@H]3[C@@H]4CCC5=CC(=O)C=C[C@]5(C)[C@H]4[C@@H](O)C[C@]3(C)[C@]2(C(=O)CO)O1` (stereo not given in full) | 35.94 | fluorescent, partial curve |
| `CC(=O)[O-].CC(=O)[O-].O.O.[Cd+2]` | 67.61 | fluorescent |
| `NC(=O)C1(N2CCCCC2)CCN(CCCN2c3ccccc3CCc3ccc(Cl)cc32)CC1` | 33.49 | fluorescent |
| `O=C1C2(Cl)C3(Cl)C4(Cl)C(Cl)(Cl)C5(Cl)C3(Cl)C1(Cl)C5(Cl)C24Cl` (stereo not given) | 52.16 | partial curve |
| `CC1(C)[C@@H](O)CC[C@]2(C)[C@H]3C(=O)C=C4[C@@H]5C[C@@](C)(C(=O)O)CC[C@]5(C)CC[C@@]4(C)[C@]3(C)CC[C@@H]12` | 21.45 | - |
| `Cc1ccc(-c2cc(C(F)(F)F)nn2-c2ccc(S(N)(=O)=O)cc2)cc1` | 54.48 | fluorescent, partial curve |
| `Oc1ccc(O)cc1` | 17.12 | fluorescent |
| `O=C(O)CCCc1c[nH]c2ccccc12` | 54.48 | activator, partial curve, poor fit |
| `CCCCCCCCCCCCC` | 14.31 | inhibitor, single point |
| `CCCC[P+](CCCC)(CCCC)CCCC` | 24.26 | activator, partial curve |
| `COC(=O)C1=C(C)NC(C)=C(C(=O)OCC(C)C)C1c1ccccc1[N+](=O)[O-]` (stereo not given) | 61.13 | - |
| `Clc1ccc(CCC(Cn2ccnc2)Sc2c(Cl)cccc2Cl)cc1` (stereo not given) | 33.49 | inhibitor, partial curve, poor fit |

For reference, 4 entries once more:

* Oc1cc(Cl)cc(Cl)c1Cl : Potency 49.75 µM (fluorescent, partial curve)
* Cc1c(Cl)c(=O)oc2cc(OP(=O)(OCCCl)OCCCl)ccc12 : Potency 13.33 µM (activator, partial curve)
* Nc1ccc2ccccc2c1 : Potency 54.48 µM (activator, partial curve, poor fit)
* NC(=O)C1(N2CCCCC2)CCN(CCCN2c3ccccc3CCc3ccc(Cl)cc32)CC1 : Potency 33.49 µM (fluorescent)